Consider 1 substance from PMC7449975.

The chains behind the UniProt entries cited, without tags or fusion partners.
UniProt Q9NVP2: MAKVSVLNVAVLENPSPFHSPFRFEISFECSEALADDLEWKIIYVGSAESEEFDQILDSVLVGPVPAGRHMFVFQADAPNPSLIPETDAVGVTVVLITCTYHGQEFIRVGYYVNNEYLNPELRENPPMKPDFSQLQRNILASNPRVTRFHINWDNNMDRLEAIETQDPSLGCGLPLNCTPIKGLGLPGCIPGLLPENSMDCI
UniProt P50750: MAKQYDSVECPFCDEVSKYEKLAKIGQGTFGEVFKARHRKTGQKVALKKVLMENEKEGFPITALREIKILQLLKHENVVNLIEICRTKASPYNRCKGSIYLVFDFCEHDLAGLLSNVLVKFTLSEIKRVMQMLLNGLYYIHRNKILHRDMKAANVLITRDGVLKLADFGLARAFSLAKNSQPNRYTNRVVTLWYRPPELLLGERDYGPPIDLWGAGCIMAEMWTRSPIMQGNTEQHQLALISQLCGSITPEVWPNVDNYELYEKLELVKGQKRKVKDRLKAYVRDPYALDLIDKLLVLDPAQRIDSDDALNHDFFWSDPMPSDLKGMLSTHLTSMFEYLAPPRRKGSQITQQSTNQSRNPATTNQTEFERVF

These are yes or no findings as the source states them, for the method shown. In cells and extracts the contact can be indirect. Some entries that bind do so weakly or less than the wild type.

This experiment has as its target endogenous ASF1B (human (endogenous in HeLa)) (UniProt Q9NVP2). The experiment is described as follows: co-IP; normal HeLa cells, endogenous proteins; anti-ASF1B antibody or anti-CDK9 antibody (Novus Biologicals); Western blot. (In general: In western blotting, separated proteins are transferred to a membrane and probed.)

With “cyclin-dependent kinase 9 (from UniProt P50750 1-372)”, the binding entry was “binds”.
